Results taken from PubChem BioAssay AID330 (DTP/NCI, 2004).
The list shows only some results of the screen, not a fair sample: it gathers tests that were run many times, whatever their T/C, doses with no T/C, and many T/C values between a quarter and a half above the control. Further doses and runs are listed elsewhere. T/C gives the treated animals as a percentage of the vehicle group. Some entries give survivors of the animals treated and no T/C: the source files T/C as zero there, which appears to mark a toxic dose or a test without result, not a measured value. Some survivor counts are full or nearly so, which does not show that the dose was tolerated: the source hardly ever lists a survival T/C far under the control, and the zero likely stands for such cases as well. Survivors were counted at the toxicity check, usually on the fifth day, unless a day is given; later deaths do not show. Schedules are NCI's codes, read here as Q, the interval in days (D) or hours (H), X, the number of doses. Some entries were tested several times; their values stand side by side, smallest first. For survival time, the PubChem record calls one and a half times the control and up active, and a quarter to a half above the control has no call in these data; cut-offs in other NCI protocols can differ. Some T/C values are followed by the survivors on the day toxicity was checked, most often the fifth; where none is given, no animal had died by that day. Signs of the kind (2×) stand for listed records that agree.

Tested on: P388 leukemia ip, CD2F1 mice, survival T/C
Experiment: NCI In Vivo Anticancer Drug Screen. Data for tumor model P388 Leukemia (intraperitoneal) in CD2F1 (CDF1) mice
Conditions: T/C endpoint: median survival time, higher T/C = longer survival
[1] = dose: 50.0 mg/kg/injection, schedule: Q01DX009 (ip), vehicle: Klucel (hydroxypropylcellulose) (HPC)
[2] = dose: 100.0 mg/kg/injection, schedule: Q01DX009 (ip), vehicle: Klucel (hydroxypropylcellulose) (HPC)
[3] = dose: 200.0 mg/kg/injection, schedule: Q01DX009 (ip), vehicle: Klucel (hydroxypropylcellulose) (HPC)
[4] = dose: 50.0 mg/kg/injection, schedule: Q01DX009 (ip), vehicle: saline with Tween-80
[5] = dose: 100.0 mg/kg/injection, schedule: Q01DX009 (ip), vehicle: saline with Tween-80
[6] = dose: 200.0 mg/kg/injection, schedule: Q01DX009 (ip), vehicle: saline with Tween-80
[7] = dose: 120.0 mg/kg/injection, schedule: Q01DX005 (ip), vehicle: Klucel (hydroxypropylcellulose) (HPC)
[8] = dose: 50.0 mg/kg/injection, schedule: Q01DX009 (ip), vehicle: saline + Tween-80 + alcohol

C=CCSc1nc2ccc(N=Cc3ccc([N+](=O)[O-])cc3)cc2s1
survivor count [1]: 6 of 6
survivor count [2]: 4 of 6
survivor count [3]: 6 of 6

Cc1ccc(N)c(O)c1
survivor count (dose: 600.0 mg/kg/injection, schedule: Q01DX009 (ip), vehicle: saline): 2 of 6

CC(O)CNC1=C(Cl)C(=O)c2ccccc2C1=O (stereo unspecified)
survivor count (dose: 400.0 mg/kg/injection, schedule: Q01DX009 (ip), vehicle: distilled water + Tween-80): 4 of 6

COc1ccc(/C=N/NC(=S)NC23CC4CC(CC(C4)C2)C3)cc1OC
survivor count (dose: 60.0 mg/kg/injection, schedule: Q01DX005 (ip), vehicle: saline with Tween-80): 6 of 6
survivor count (dose: 120.0 mg/kg/injection, schedule: Q01DX005 (ip), vehicle: saline with Tween-80): 6 of 6
survivor count (dose: 240.0 mg/kg/injection, schedule: Q01DX005 (ip), vehicle: saline with Tween-80): 6 of 6

CCCCCC(C)(O)C1=NCCN1 (stereo unspecified)
survivor count (dose: 100.0 mg/kg/injection, schedule: Q01DX005 (ip), vehicle: Klucel (hydroxypropylcellulose) (HPC)): 2 of 6
survivor count (dose: 200.0 mg/kg/injection, schedule: Q01DX005 (ip), vehicle: Klucel (hydroxypropylcellulose) (HPC)): 0 of 6

COc1cc(Cc2nccc3cc(OC)c(OC)cc23)c(C(C)=O)cc1OC
T/C (dose: 6.25 mg/kg/injection, schedule: Q01DX009 (ip), vehicle: saline sonified): 133 % of control
survivor count (dose: 25.0 mg/kg/injection, schedule: Q01DX009 (ip), vehicle: saline with Tween-80): 6 of 6
survivor count [4]: 5 of 6
survivor count [2]: 3 of 6
survivor count [5]: 0 of 6
survivor count (dose: 200.0 mg/kg/injection, schedule: Q04DX003 (ip), vehicle: saline with Tween-80): 1 of 6
survivor count (dose: 400.0 mg/kg/injection, schedule: Q04DX003 (ip), vehicle: saline with Tween-80): 0 of 6

CC(CN=Cc1ccccc1O)N=Cc1ccccc1O.[Zn] (stereo unspecified)
survivor count [4]: 2 of 6 and 4 of 6
survivor count [5]: 0 of 6
survivor count [6]: 0 of 6

NC(=O)Cc1noc2ccccc12
T/C [4]: 97, 116, 120 % of control (2×)
T/C [5]: 88, 100, 110, 115 % of control
T/C [6]: 94, 99, 106 [5 of 6 alive], 125 % of control

Cc1cc(C(C)(CC(C)C)c2ccc(O)c(C)c2)ccc1O
survivor count [5]: 4 of 6

C=C=C(COC(C)=O)ON1CCCCC1
survivor count (dose: 200.0 mg/kg/injection, schedule: Q01DX005 (ip), vehicle: saline): 0 of 6

CN(C)CC/C=C1/c2ccccc2Sc2ccc(Cl)cc21
survivor count (dose: 25.0 mg/kg/injection, schedule: Q01DX005 (ip), vehicle: saline with Tween-80): 3 of 5
survivor count (dose: 50.0 mg/kg/injection, schedule: Q01DX005 (ip), vehicle: saline with Tween-80): 2 of 5
survivor count (dose: 100.0 mg/kg/injection, schedule: Q01DX005 (ip), vehicle: saline with Tween-80): 0 of 5
survivor count (dose: 200.0 mg/kg/injection, schedule: Q01DX005 (ip), vehicle: saline with Tween-80): 0 of 5

C=CC(C(=O)O)S(=O)(=O)O (stereo unspecified)
survivor count (dose: 80.0 mg/kg/injection, schedule: Q01DX009 (ip), vehicle: saline with Tween-80): 2 of 6

O=C(CC(=O)C(F)(F)F)c1cccs1
survivor count [5]: 1 of 6
survivor count [6]: 0 of 6
survivor count (dose: 400.0 mg/kg/injection, schedule: Q01DX009 (ip), vehicle: saline with Tween-80): 0 of 6

CCCNCCC(O)c1cc(C(F)(F)F)nc2c(C(F)(F)F)cccc12 (stereo unspecified)
survivor count [6]: 0 of 6

COc1cc2cccnc2c2[nH]c(=O)c3c(c12)CCC3
survivor count (dose: 400.0 mg/kg/injection, schedule: Q04DX003 (ip), vehicle: saline): 2 of 6

O=C1C2C3(CCl)C1C23CCl (stereo unspecified)
survivor count (dose: 60.0 mg/kg/injection, schedule: Q01DX005 (ip), vehicle: Klucel (hydroxypropylcellulose) (HPC)): 0 of 6
survivor count [7]: 0 of 6
survivor count (dose: 240.0 mg/kg/injection, schedule: Q01DX005 (ip), vehicle: Klucel (hydroxypropylcellulose) (HPC)): 0 of 6

NNC(=O)c1ccc(NC(=O)CSc2nc3ccccc3s2)cc1
survivor count [1]: 3 of 6
survivor count [2]: 0 of 6
survivor count [3]: 0 of 6

O=C(O)c1ccccc1C(=O)O.[Cu+2].[NH-]CC[NH-]
survivor count (dose: 25.0 mg/kg/injection, schedule: Q04DX002 (ip), vehicle: saline with Tween-80): 0 of 6
survivor count (dose: 50.0 mg/kg/injection, schedule: Q04DX002 (ip), vehicle: saline with Tween-80): 0 of 6
survivor count (dose: 100.0 mg/kg/injection, schedule: Q04DX002 (ip), vehicle: saline with Tween-80): 0 of 6

ClC1=C(Cl)C2(Cl)C3C(Cl)C(Cl)CC3C1(Cl)C2(Cl)Cl (stereo unspecified)
T/C [8]: 86 and 90 % of control [5 of 6 alive]
survivor count [8]: 3 of 6 and 6 of 6
survivor count (dose: 100.0 mg/kg/injection, schedule: Q01DX009 (ip), vehicle: other): 3 of 6
survivor count (dose: 100.0 mg/kg/injection, schedule: Q01DX009 (ip), vehicle: saline + Tween-80 + alcohol): 0 of 6
survivor count (dose: 200.0 mg/kg/injection, schedule: Q01DX009 (ip), vehicle: other): 0 of 6 and 4 of 6
survivor count (dose: 200.0 mg/kg/injection, schedule: Q01DX009 (ip), vehicle: saline + Tween-80 + alcohol): 0 of 6
survivor count (dose: 300.0 mg/kg/injection, schedule: Q01DX009 (ip), vehicle: other): 0 of 6
survivor count (dose: 400.0 mg/kg/injection, schedule: Q01DX009 (ip), vehicle: saline + Tween-80 + alcohol): 0 of 6
survivor count (dose: 800.0 mg/kg/injection, schedule: Q01DX009 (ip), vehicle: saline + Tween-80 + alcohol): 0 of 6

c1ccc(-[n+]2ccc(-c3cc[n+](-c4ccccc4)cc3)cc2)cc1
survivor count (dose: 200.0 mg/kg/injection, schedule: Q04DX002 (ip), vehicle: Klucel (hydroxypropylcellulose) (HPC)): 1 of 6
survivor count (dose: 400.0 mg/kg/injection, schedule: Q04DX002 (ip), vehicle: Klucel (hydroxypropylcellulose) (HPC)): 1 of 6

O=C(c1ccccc1)C(NCc1ccccc1)(Nc1ccccn1)c1ccccc1 (stereo unspecified)
survivor count [7]: 6 of 6
